From PMC11980836
Residue numbers refer to the chain shown, from its start. No constants are given. Whether binding was seen depends on the method and setting. In cells and extracts the contact can be indirect. Some binding calls cover weakened binding; strength is not graded here. For part of these data: Sequences can lack the tags named with a protein.

Key:
[1] = biological target: T1, Flag-tagged ARMC1 (F-ARMC1), wild type (UniProt Q9NVT9); experiment: co-sedimentation; F-ARMC1 affinity purification size fractionated over a 10 to 30% sucrose gradient in PSB with 0.25% digitonin, 55,000 rpm, 1 hour, 4°C; 11 fractions, immunoblotting and Coomassie staining
T1 sequence: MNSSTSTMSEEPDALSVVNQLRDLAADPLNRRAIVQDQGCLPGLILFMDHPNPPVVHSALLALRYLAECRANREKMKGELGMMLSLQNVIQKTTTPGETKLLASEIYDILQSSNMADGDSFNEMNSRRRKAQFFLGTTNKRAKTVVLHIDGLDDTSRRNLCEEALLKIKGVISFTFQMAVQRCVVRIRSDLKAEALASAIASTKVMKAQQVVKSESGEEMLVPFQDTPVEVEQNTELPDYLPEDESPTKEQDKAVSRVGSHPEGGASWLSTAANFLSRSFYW

D37R F-ARMC1 = biological target: T2, D37R F-ARMC1 (UniProt Q9NVT9); experiment: co-IP; small-scale copurification: membranes of cells expressing F-ARMC1 variants solubilized in 1% digitonin in RNC buffer, M2 anti-Flag resin 1 hour at 4°C, washed in 0.1% digitonin, eluted with sample buffer, immunoblotting; cells without or with siRNA knock-down of MIRO1 and MIRO2, the three MTFRs, TMEM11, DNAJC11 or MTCH2
T2 sequence: T1 sequence with D37R

[2] = biological target: T1, Flag-tagged ARMC1 (F-ARMC1), wild type; experiment: as above

binding [1]: binds
binding (D37R F-ARMC1): binds
binding [2]: binds
B1: metaxin 1 (MTX1) (protein, UniProt Q13505 1-466)
chain: MLLGGPPRSPRSGTSPKGPWSSTGHVQFGKSPQTWPRRTRPRSPEPAAPSGVRGSTWTRRRDSPRRAGPTALSRYVGHLWMGRRPPSPEARGPVPRSSAASRARRSLASPGISPGPLTATIGGAVAGGGPRQGRAEAHKEVFPGQRVGKMAAPMELFCWSGGWGLPSVDLDSLAVLTYARFTGAPLKVHKISNPWQSPSGTLPALRTSHGEVISVPHKIITHLRKEKYNADYDLSARQGADTLAFMSLLEEKLLPVLVHTFWIDTKNYVEVTRKWYAEAMPFPLNFFLPGRMQRQYMERLQLLTGEHRPEDEEELEKELYREARECLTLLSQRLGSQKFFFGDAPASLDAFVFSYLALLLQAKLPSGKLQVHLRGLHNLCAYCTHILSLYFPWDGAEVPPQRQTPAGPETEEEPYRRRNQILSVLAGLAAMVGYALLSGIVSIQRATPARAPGTRTLGMAEEDEEE
